Record: PubChem BioAssay AID1259405 (NCATS, 2018)

- Purpose: 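Knock-downs that lift recombinant protein yield in hamster ovary cells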 (primary screen)
- Cells: Chinese hamster CHO-K1 ovary cells with stable secreted eGFP expression
- Knock-down reagent: single siRNA against mouse genes, 0.8 pmol siRNA per well (2 µl of 400 nM stock)
- Duration: 3 days
- Read-out: 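Per-well intracellular GFP measured by laser scanning cytometry, plus viability from ATP luminescence, each relative to plate median of non-targeting control wells, in %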
- Direction: GFP, % of control: higher = more GFP per well, higher productivity; viability (ATP), % of control: higher = more viable cells (more ATP)
- Rule for the call: 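a knock-down is called active if GFP reaches 120% or more of non-targeting control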
In all, the deposit lists about 50,000 reagents; below is an unselected part. Over the whole deposit, about 4,000 (8%) were called active. 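Mouse siRNA library applied to hamster cells; one well for each siRNA.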 A number with no mark means an inactive call. Reagents against one gene are numbered here. Reagent sequences are not shown.

gene	reagent	GFP, % of control	viability (ATP), % of control
Cbr1 (carbonyl reductase 1)	1	89.2	85.9
Cbr1 (carbonyl reductase 1)	2	93.7	89.1
Cbr1 (carbonyl reductase 1)	3	58.7	65.8
Prg2 (proteoglycan 2, bone marrow)	1	41.5	25.3
Prg2 (proteoglycan 2, bone marrow)	2	82.6	83.6
Prg2 (proteoglycan 2, bone marrow)	3	106	96.5
Arxes1 (adipocyte-related X-chromosome expressed sequence 1)	1	124 (active)	93.1
Arxes1 (adipocyte-related X-chromosome expressed sequence 1)	2	87.9	72.9
Arxes1 (adipocyte-related X-chromosome expressed sequence 1)	3	78.8	68.9
Cby2 (chibby family member 2)	1	64	79.3
Cby2 (chibby family member 2)	2	94.8	32
Cby2 (chibby family member 2)	3	43.4	45.6
Or11h4b (olfactory receptor family 11 subfamily H member 4B)	1	89.3	55.7
Or11h4b (olfactory receptor family 11 subfamily H member 4B)	2	58.1	81.6
Or11h4b (olfactory receptor family 11 subfamily H member 4B)	3	74	50.5
Ebna1bp2 (EBNA1 binding protein 2)	1	88.7	95.1
Ebna1bp2 (EBNA1 binding protein 2)	2	100	98.3
Ebna1bp2 (EBNA1 binding protein 2)	3	123 (active)	68.1
Vmn1r76 (vomeronasal 1 receptor 76)	1	122 (active)	77.7
Vmn1r76 (vomeronasal 1 receptor 76)	2	83.9	93.6
Vmn1r76 (vomeronasal 1 receptor 76)	3	57.2	58.5
Lrig1 (leucine-rich repeats and immunoglobulin-like domains 1)	1	86.3	84.3
Lrig1 (leucine-rich repeats and immunoglobulin-like domains 1)	2	78.1	58.7
Lrig1 (leucine-rich repeats and immunoglobulin-like domains 1)	3	95.8	91.7
A830031A19Rik (RIKEN cDNA A830031A19 gene)	1	158 (active)	113
A830031A19Rik (RIKEN cDNA A830031A19 gene)	2	63.1	95.6
A830031A19Rik (RIKEN cDNA A830031A19 gene)	3	97.4	102
Ubxn10 (UBX domain protein 10)	1	76.4	78.3
Ubxn10 (UBX domain protein 10)	2	68.6	107
Ubxn10 (UBX domain protein 10)	3	75.5	82.5
Klk14 (kallikrein related-peptidase 14)	1	84.6	70.6
Klk14 (kallikrein related-peptidase 14)	2	45.4	72.5
Klk14 (kallikrein related-peptidase 14)	3	48.8	57.1
Sec24d (SEC24 homolog D, COPII coat complex component)	1	35.9	67.2
Sec24d (SEC24 homolog D, COPII coat complex component)	2	50.8	63.2
Pkm (pyruvate kinase, muscle)	1	106	89.8
Ralgps1 (Ral GEF with PH domain and SH3 binding motif 1)	1	68.3	78.7
Ralgps1 (Ral GEF with PH domain and SH3 binding motif 1)	2	62.6	86.6
Ralgps1 (Ral GEF with PH domain and SH3 binding motif 1)	3	45.2	58.1
Sost (sclerostin)	1	141 (active)	87.9
Sost (sclerostin)	2	76.6	75.6
Sost (sclerostin)	3	55.7	52.8
Galnt12 (polypeptide N-acetylgalactosaminyltransferase 12)	1	101	80.1
Galnt12 (polypeptide N-acetylgalactosaminyltransferase 12)	2	68	127
Galnt12 (polypeptide N-acetylgalactosaminyltransferase 12)	3	79.7	129
Pou3f2 (POU domain, class 3, transcription factor 2)	1	89.1	84.5
Pou3f2 (POU domain, class 3, transcription factor 2)	2	111	84.2
Pou3f2 (POU domain, class 3, transcription factor 2)	3	77.8	83.2
Stom (stomatin)	1	53	52.7
Stom (stomatin)	2	81.5	74.8
Stom (stomatin)	3	83.6	75.4
Or10al5 (olfactory receptor family 10 subfamily AL member 5)	1	108	81.7
Or10al5 (olfactory receptor family 10 subfamily AL member 5)	2	98.5	100
Or10al5 (olfactory receptor family 10 subfamily AL member 5)	3	52.8	30.2
Spcs1 (signal peptidase complex subunit 1 homolog (S. cerevisiae))	1	84	87.4
Spcs1 (signal peptidase complex subunit 1 homolog (S. cerevisiae))	2	67	73.6
Spcs1 (signal peptidase complex subunit 1 homolog (S. cerevisiae))	3	83.6	86.4
